Measured values taken from patent US9061981B2, “Diphenyl substituted cyclohexane derivatives, useful as modulators of the estrogen receptors beta” (Acadia Pharmaceuticals Inc., priority 2011, dated 2015).
At least one compound was matched to its structure with a doubt left.

Experiments:
[1] = test system: bilateral 6-hydroxydopamine (6OHDA) lesion of the substantia nigra; test: Bilateral 6OHDA lesion of the substantia nigra, behavioral assessment; type: in vivo, Male rats; conditions: 6OHDA rats, once daily 7 days sc; 10 mg/kg (estradiol 100 μg/kg)
Protocol: (§1) Male rats received baseline assessment of weight, motor function (spontaneous locomotor behavior, rotorod performance) and sensorimotor gating (prepulse inhibition). Subjects were assigned to treatment conditions to equalize performance on all these measures. Subjects were then treated once daily for 7 days with either sesame oil vehicle, estradiol (100 μg/kg sc), Comparative substance 131 (10 mg/kg sc), Compound 8 (10 mg/kg sc), Comparative substance 623 (10 mg/kg sc) or Comparative substance 957 (10 mg/kg sc). On the second day of treatment, subjects received bilateral sham or 6OHDA lesions (8 μg in 4 μl) of the substantia nigra (A/P−5.0 mm, M/L±1.6 mm, D/V−8.2 mm) following the atlas of Paxinos and Watson (Paxinos, G., Watson, C., The Rat Brain in Stereotaxic Coordinates, Fourth Edition, New York: Academic Press, Spiral Bound, 1998). Behavioral assessments of motor function (spontaneous locomotion, rotorod and traversing a challenging beam), cognition (novel object recognition) and sensorimotor gating (prepulse inhibition) began after the final day of treatment. Following behavioral assessment, SN and striatal tissue were collected in order to determine the intactness of the nigrostriatal dopamine system.

[2] = test system: nigrostriatal dopamine neurons; test: Tyrosine hydroxylase immunofluorescence in SN and STR after 6OHDA lesion; type: in vivo, Male rats; conditions: 6OHDA rats, once daily 7 days sc; 10 mg/kg (estradiol 100 μg/kg)
Protocol: as §1
Comparative compound 131 and Compound 8 were compared with estradiol for their ability to protect nigrostriatal dopamine neurons as measured by tyrosine hydroxylase (TH) immunohistochemistry in the SN and striatum (STR).

SMILES: C[C@]12CC[C@@H]3c4ccc(O)cc4CC[C@H]3[C@@H]1CC[C@@H]2O [estradiol]
- motor performance (spontaneous locomotor activity, rotorod, challenging beam) [1]: did not reliably improve motor or cognitive performance
- novel object recognition (cognition) [1]: did not reliably improve motor or cognitive performance
- prepulse inhibition (sensorimotor gating) [1]: prevented the 6OHDA-induced deficit in PPI
- percent immunopositive and mean pixel intensity of TH immunofluorescence in the STR [2]: did not prevent 6OHDA-induced damage in the striatum
- percent immunopositive, mean cell size and mean pixel intensity of TH immunofluorescence in the SN [2]: but not in animals treated with estradiol
- tyrosine hydroxylase positive cell number in the SN [2]: prevented the reduction in cell number
